This passage reports growth estimate results from the supplement of paper PMC5949888.

Most values lie at the floor of the assay. Slopes are relative: functional sequences can read slightly below zero. Some results are limits rather than exact numbers.

The subject of the data set is Saccharomyces cerevisiae PS128 hsf1 delta, HSF1(1-493) fusion. Description: growth estimate (transactivation domain function in HSF1 fusion, heat-shock survival) (a.u. (slope of normalised read count over time)); higher = stronger growth at 37°C, i.e. more transactivation activity. As to conditions: library: random library.
On to LYPNDSRHLLAIVISKTTNC, for which the growth estimate was -0.0944. Take ALSN: the growth estimate was less than -0.25. Under FSLDSN stands less than -0.25. Under VLGGTLSRTTVR stands less than -0.25; under LEFAKA, less than -0.25. Under PENSGQGVKVIQTASEYPPS stands less than -0.25. Regarding QLGGPFI, the growth estimate is less than -0.25. As for SECHVT, the growth estimate was less than -0.25. On to GIPHKVPMCLHSSPVPASRG, for which the growth estimate was less than -0.25. For TNKR the value was less than -0.25; for WGLALALHREIMIQQAIRGQ, less than -0.25.

Regarding CGRRLGGVLAEAKSIGGIVL, the growth estimate is -0.245. On to MCLII, for which the growth estimate was less than -0.25. For the substance TEVMEKGALYVSDRRRERRS, the growth estimate was less than -0.25. Take LNTYRSWG: the growth estimate is less than -0.25.

LSEKFGSV: the growth estimate was less than -0.25. Regarding TESTGTDGRTSDRGAPQLAQ, the growth estimate is less than -0.25. Regarding LGKT, the growth estimate was -0.219. For ALGARSQAPNSL the value was less than -0.25; for DLIAKGDRLIGCTAQSVPGV, less than -0.25; for PCRD, less than -0.25. For FKNYRAT the value was less than -0.25. For NAAIAAVTATQGMTVRYGTL the value was less than -0.25. As for FPTLRPCWWDCA, the growth estimate is less than -0.25. Regarding HVLGGQLRCSPLAGEPRVKV, the growth estimate is less than -0.25.

As to GSHKDLLTRALRRQVAAPKS, the growth estimate was less than -0.25.

For the substance GTSGKSCYP, the growth estimate was less than -0.25. For GFDTKSGTS, the growth estimate was less than -0.25. Regarding PEGGQSLLGQLGNVLLRT, the growth estimate is less than -0.25.

SNFGVEWSN: the growth estimate is less than -0.25. On to GLVHSHLPR, for which the growth estimate was less than -0.25. For QHF the value was less than -0.25; for CSDFYNSL, less than -0.25; for VSLLGNFSPFWGL, 0.289. In the case of RRKNVVHWMRVVEESGAEPD, the growth estimate was less than -0.25. Take GPLPLPYQRISFI: the growth estimate is less than -0.25. Under GIREVGPLGSAEAYSPLWGE stands -0.227.

As to GATARF, the growth estimate was less than -0.25. For SEGILN, the growth estimate is less than -0.25. YFCD: the growth estimate was less than -0.25.

Take DASCYTLVVIAYT: the growth estimate is less than -0.25.

For YPADSYTRLLMNPRE, the growth estimate was less than -0.25. For the substance WPARCARAEGPIEHTTKTQG, the growth estimate is less than -0.25.

With HWEMLAT, the growth estimate was less than -0.25. Take KVCCLQTGCRGIVFHNAQDR: the growth estimate was -0.231. For HMRSICLKPEGLGPVT the value was less than -0.25. Under RHWTSSGTKCMGLLEH stands -0.25; under LQSSAATRLVELKFDDGVRR, less than -0.25. Under EVVR stands less than -0.25. In the case of CVSLAYFEVFMRHPWHGVPD, the growth estimate was less than -0.25.

ELAYLPGFLDRMLPSL: the growth estimate is 1.16. Take RSGSRGHGGARNAGQGKTVC: the growth estimate was less than -0.25. On to YTNTPMHGQIAFGRRSPGFW, for which the growth estimate is less than -0.25.

In the case of LEFSKAKAARGLTSDCAT, the growth estimate was less than -0.25. For the substance QYPLGSQRALLQYGLFLQNE, the growth estimate is less than -0.25. Under LQKLLICSAPNKTAATVCCE stands less than -0.25. Under ARRHGER stands less than -0.25. For SLHGGWYNHKSKDLHLLGGS the value was less than -0.25; for WQGGGRS, less than -0.25; for IDSITSSGLVSVAQFRTRSR, less than -0.25.

For LEGRRRIQVFTEGSCTWGDK, the growth estimate was less than -0.25.

For FSNPRSDVIALWLPTTWGC, the growth estimate is less than -0.25. Under ERMEFDTPQSQATDEGRRRA stands less than -0.25; under PEVTLSIFVRIVQYFPREYR, less than -0.25; under RYGGCTLDCVTAL, less than -0.25. Turning to VRWCFGDLPRGGLRMLTSFT, the growth estimate was less than -0.25. Take GFSDRSISWTKPDDYVRRAI: the growth estimate was less than -0.25. As for FEHII, the growth estimate was less than -0.25. HEVRYVSPRDMVSKYAA: the growth estimate is less than -0.25. In the case of EGTLIGPYLNEVHRLEPTDF, the growth estimate is less than -0.25.

In the case of IRGQECLGARS, the growth estimate is less than -0.25.

Turning to YTGRT, the growth estimate is less than -0.25.

For WRGLVQWNVVRLVDFFRRSP, the growth estimate was less than -0.25.

With GSTP, the growth estimate was less than -0.25. For SRKVCGKGVQTI the value was less than -0.25; for GDVRYLIFY, less than -0.25; for GAISDVNQKTGPLAYAGNHH, less than -0.25. For LNANQYNMEEVMGPDAGAIP the value was less than -0.25. Under RTGMWMLSH stands less than -0.25.
